Measured values: patent US20110091971A1, “Differentiation of Pluripotent Stem Cells” (priority 2008, published 2011)
Entries after “also recorded” stand apart in the source; their conditions may differ.

System: human activin A
Test: activin A ELISA (DuoSet kit) for total activin A protein in supernatants and purified material
Conditions: for Mean Results MEAN CCN: 10x concentrated supernatant, final calculated stock concentration; for ELISA concentration (ng/ml) / ELISA concentration: concentrated culture supernatants, HEK 293F, Example 11; for ELISA concentration (activin A protein in supernatant): concentrated supernatant (10x; ACTD3 4x)

Molecule | Mean Results MEAN CCN | ELISA concentration (ng/ml) | ELISA concentration | ELISA concentration (activin A protein in supernatant)
ACTN4: activin A variant peptide, SEQ ID 5 (protein) GLECDGKVNLCCKKQLFVSFKDIGWNDWIIAPSGYHANHCSGLCPSHIAGTSGSSLSFHSTVINHYRMRGHSPFSDMGACCVPTKLRPMSMLYYDDGQNIIKKDIQNMIVEECGCS | 719 ng/mL | 1,874 ng/ml |  | 
ACTN27: activin A variant peptide, SEQ ID 28 (protein) GLECDGKVNLCCKKQLFVSFKDIGWNDWIIAPSGYHANHCDGKCPSHIAGTSGSSLSFHSTVINHYRMRGHSPFANRGACCIPTKLRPMSMLYYDDGQNIIKKDIQNMIVEECGCS |  |  | 115 ng/mL | 
ACTN31: activin A variant peptide, SEQ ID 32 (protein) GLECDGKVNTCCKKQLFVSFKDIGWNDWIIAPSGYHANHCSGKCPSHIAGTSGSSLSFHSTVINHYRMRGHSPFSDMGSCCIPTKLRPMSMLYYDDGQNIIKKDIQNMIVEECGCS |  | 3,243 ng/ml |  | 
ACTN40: activin A variant peptide, SEQ ID 41 (protein) GLECDGKVNLCCKKQLFVSFKDIGWNDWIIAPSGYHANHCAGLCPSHIAGTSGSSLSFHSTVINHYRMRGHSPFSNMGSCCVPTKLRPMSMLYYDDGQNIIKKDIQNMIVEECGCS | 584 ng/mL | 2,041 ng/ml |  | 
ACTN28: activin A variant peptide, SEQ ID 29 (protein) GLECDGKVNYCCKKQLFVSFKDIGWNDWIIAPSGYHANHCSGKCPSHIAGTSGSSLSFHSTVINHYRMRGHSPFANMGSCCIPTKLRPMSMLYYDDGQNIIKKDIQNMIVEECGCS |  |  | 810 ng/mL | 
ACTN29: activin A variant peptide, SEQ ID 30 (protein) GLECDGKVNLCCKKQLFVSFKDIGWNDWIIAPSGYHANHCSGKCPSHIAGTSGSSLSFHSTVINHYRMRGHSPFSDMGSCCIPTKLRPMSMLYYDDGQNIIKKDIQNMIVEECGCS |  | 1,392 ng/ml |  | 
ACTN34: activin A variant peptide, SEQ ID 35 (protein) GLECDGKVNYCCKKQLFVSFKDIGWNDWIIAPSGYHANHCTGKCPSHIAGTSGSSLSFHSTVINHYRMRGHSPFSDLGSCCVPTKLRPMSMLYYDDGQNIIKKDIQNMIVEECGCS | 830 ng/mL | 1,154 ng/ml |  | 1161 ng/mL
ACTN12: activin A variant peptide, SEQ ID 13 (protein) GLECDGKVNYCCKKQNFVSFKDIGWNDWIIAPSGYHANECSGLCPSHIAGTSGSSLSFHSTVINHYRMRGHSPFSQMGSCCIPTKLRPMSMLYYDDGQNIIKKDIQNMIVEECGCS |  |  | 310 ng/mL | 
ACTN47: activin A variant peptide, SEQ ID 48 (protein) GLECDGKVNYCCKKQNFVSFKDIGWNDWIIAPSGYHANECSGKCPSHIAGTSGSSLSFHSTVINHYRMRGHSPFSDMGSCCIPTKLRPMSMLYYDDGQNIIKKDIQNMIVEECGCS |  |  | 179 ng/mL | 
ACTN16: activin A variant peptide, SEQ ID 17 (protein) GLECDGKVNLCCKKQLFVSFKDIGWNDWIIAPSGYHANHCSGLCPSHIAGTSGSSLSFHSTVINHYRMRGHSPFSQMGACCVPTKLRPMSMLYYDDGQNIIKKDIQNMIVEECGCS | 41 ng/mL | 2,113 ng/ml |  | 968 ng/mL
ACTN48: activin A variant peptide, SEQ ID 49 (protein) GLECDGKVNLCCKKQNFVSFKDIGWNDWIIAPSGYHANECSGLCPSHIAGTSGSSLSFHSTVINHYRMRGHSPFANMGACCIPTKLRPMSMLYYDDGQNIIKKDIQNMIVEECGCS |  | 7,587 ng/ml |  | 
ACTN11: activin A variant peptide, SEQ ID 12 (protein) GLECDGKVNLCCKKQLFVSFKDIGWNDWIIAPSGYHANHCSGLCPSHIAGTSGSSLSFHSTVINHYRMRGHSPFAQMGACCIPTKLRPMSMLYYDDGQNIIKKDIQNMIVEECGCS |  |  | 386 ng/mL | 
ACTN56: activin A variant peptide, SEQ ID 57 (protein) GLECDGKVNICCKKQSFGQAKDIGWNDWIIAPSGYHGGSCTGECPSHIAGTSGSSLSFHSTVINHYRMRGHSPFANLKSCCAPTKLRPMSMLYYDDGQNIIKKDIQNMVVEECGCV |  | not present in sufficient amounts to measure by ELISA; also recorded: not detectable |  | 
ACTN65: activin A variant peptide, SEQ ID 66 (protein) GLECDGKVNICCKKQSFGQTKDIGWNDWIIAPSGYHGGSCSGECPSHIAGTSGSSLSFHSTVINHYRMRGHSPFANLKSCCSPTKLRPMSMLYYDDGQNIIKKDIQGMKVEECGCT |  | not present in sufficient amounts to measure by ELISA; also recorded: not detectable |  | 
ACTN69: activin A variant peptide, SEQ ID 70 (protein) GLECDGKVNICCKKQSFGKTKDIGWNDWIIAPSGYHGGGCTGECPSHIAGTSGSSLSFHSTVINHYRMRGHSPFANLKSCCSPTKLRPMSMLYYDDGQNIIKKDIQQMVVEECGCT |  | not present in sufficient amounts to measure by ELISA; also recorded: not detectable |  | 
